Laboratory results as given in article doi:10.1101/2025.10.13.682252.
These are yes or no findings as the source states them, for the method shown. In cells and extracts the contact can be indirect. Some binding calls cover weakened binding; strength is not graded here.

Amino acid sequences for entries named in this document (tags omitted). A change or cut given only in a name is not applied to a line headed by its entry. Chains listed by the source or under a name are the forms on record and can include a tag or linker.
UniProt O60566: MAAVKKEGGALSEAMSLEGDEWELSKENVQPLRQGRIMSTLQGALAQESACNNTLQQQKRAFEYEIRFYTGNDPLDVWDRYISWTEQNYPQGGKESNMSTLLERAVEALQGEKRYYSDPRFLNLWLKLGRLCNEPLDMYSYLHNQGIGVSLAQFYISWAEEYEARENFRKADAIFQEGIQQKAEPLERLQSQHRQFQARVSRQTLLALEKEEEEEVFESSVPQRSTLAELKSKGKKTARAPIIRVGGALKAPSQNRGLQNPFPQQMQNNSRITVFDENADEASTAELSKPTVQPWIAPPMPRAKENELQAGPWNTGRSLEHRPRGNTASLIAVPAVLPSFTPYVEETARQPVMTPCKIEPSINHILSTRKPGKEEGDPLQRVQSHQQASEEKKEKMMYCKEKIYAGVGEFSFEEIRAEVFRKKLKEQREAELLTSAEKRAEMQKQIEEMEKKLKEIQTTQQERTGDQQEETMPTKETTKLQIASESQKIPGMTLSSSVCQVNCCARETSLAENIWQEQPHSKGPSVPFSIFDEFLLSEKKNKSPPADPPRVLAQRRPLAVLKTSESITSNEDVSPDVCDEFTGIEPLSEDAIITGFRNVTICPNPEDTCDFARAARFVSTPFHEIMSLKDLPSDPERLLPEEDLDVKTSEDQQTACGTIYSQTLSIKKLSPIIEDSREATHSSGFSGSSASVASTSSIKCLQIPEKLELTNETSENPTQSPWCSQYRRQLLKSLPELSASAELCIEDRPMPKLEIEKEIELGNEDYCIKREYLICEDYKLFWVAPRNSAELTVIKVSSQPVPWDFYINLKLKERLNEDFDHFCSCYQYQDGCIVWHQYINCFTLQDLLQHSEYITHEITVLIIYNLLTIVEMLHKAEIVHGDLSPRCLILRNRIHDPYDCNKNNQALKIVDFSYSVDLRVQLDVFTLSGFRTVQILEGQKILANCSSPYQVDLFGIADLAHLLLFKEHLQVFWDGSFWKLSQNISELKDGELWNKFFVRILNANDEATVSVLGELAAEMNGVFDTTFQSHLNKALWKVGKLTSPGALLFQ
YFP-BubR1 NNSR/4A (O60566, form named): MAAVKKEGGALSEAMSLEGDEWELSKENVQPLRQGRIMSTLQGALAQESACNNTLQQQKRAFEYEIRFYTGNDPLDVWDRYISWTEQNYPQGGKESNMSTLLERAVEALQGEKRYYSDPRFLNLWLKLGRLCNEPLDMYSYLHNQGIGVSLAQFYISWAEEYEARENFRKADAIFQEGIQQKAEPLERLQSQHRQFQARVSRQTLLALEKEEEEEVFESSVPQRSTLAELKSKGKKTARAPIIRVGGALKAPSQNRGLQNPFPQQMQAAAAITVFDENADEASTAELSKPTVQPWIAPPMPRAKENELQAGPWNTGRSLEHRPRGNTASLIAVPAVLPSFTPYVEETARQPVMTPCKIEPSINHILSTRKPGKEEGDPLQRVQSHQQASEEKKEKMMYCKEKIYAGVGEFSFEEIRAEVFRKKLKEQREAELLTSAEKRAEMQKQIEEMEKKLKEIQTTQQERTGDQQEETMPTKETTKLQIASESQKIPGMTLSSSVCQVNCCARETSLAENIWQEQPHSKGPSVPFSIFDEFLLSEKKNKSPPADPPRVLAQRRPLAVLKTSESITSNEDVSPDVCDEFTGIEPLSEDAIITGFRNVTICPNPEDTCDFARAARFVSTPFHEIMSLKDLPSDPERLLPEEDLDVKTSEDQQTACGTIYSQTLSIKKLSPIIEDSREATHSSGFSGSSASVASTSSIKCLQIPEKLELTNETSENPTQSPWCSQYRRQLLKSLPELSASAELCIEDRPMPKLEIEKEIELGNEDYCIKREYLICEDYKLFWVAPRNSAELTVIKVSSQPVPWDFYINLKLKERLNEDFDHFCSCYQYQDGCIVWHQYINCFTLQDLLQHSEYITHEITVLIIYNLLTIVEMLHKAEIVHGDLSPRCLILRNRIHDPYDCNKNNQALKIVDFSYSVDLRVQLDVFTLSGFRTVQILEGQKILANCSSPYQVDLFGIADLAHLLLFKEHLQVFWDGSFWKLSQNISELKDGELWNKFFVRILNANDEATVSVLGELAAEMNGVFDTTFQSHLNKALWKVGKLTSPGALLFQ
UniProt Q13257: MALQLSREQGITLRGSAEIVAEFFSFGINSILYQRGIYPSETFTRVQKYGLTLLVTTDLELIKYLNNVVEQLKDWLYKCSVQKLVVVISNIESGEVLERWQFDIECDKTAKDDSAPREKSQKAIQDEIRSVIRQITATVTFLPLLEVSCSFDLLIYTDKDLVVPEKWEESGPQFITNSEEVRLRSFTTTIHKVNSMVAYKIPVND

Key:
Experiment in all cases: co-IP
[1] = target: YFP-BubR1 V200A/L205A (human) (UniProt O60566)
[2] = target: YFP-BubR1 W22A/E23A (human) (UniProt O60566)
YFP-BubR1 W295A (human) = YFP-BubR1 W295A (human) (UniProt O60566)
[3] = target: YFP-BubR1 NNSR/4A (human) (UniProt O60566)
YFP-BubR1 Y141A (human) = YFP-BubR1 Y141A (human) (UniProt O60566)
[4] = target: YFP-BubR1 E134R/D137R (human) (UniProt O60566)
YFP-BubR1 B1TPR = YFP-BubR1 B1TPR (UniProt O60566)
[5] = target: YFP-BubR1 W125A/L128A/C132A/M138A (human) (UniProt O60566)

Substance: Mad2 (from UniProt Q13257 1-205)
- binding [1]: binds
- binding [2]: no binding
- binding (YFP-BubR1 W295A (human)): binds
- binding [3]: binds
- binding (YFP-BubR1 Y141A (human)): binds
- binding [4]: binds
- binding (YFP-BubR1 B1TPR): no binding
- binding [5]: binds
